Results reported in the supplement of paper PMC8728848.
Some of the results follow.

Experiments:
Assay in all cases: glycan array binding signal (z-score within array); higher = stronger binding
Conditions in all cases: glycan notation: IUPAC condensed, linker removed
[1] = target: Fuc(a1-2)Gal(b1-4)GlcNAc(b1-3)Gal(b1-4)GlcNAc(b1-2)Man(a1-3)[Fuc(a1-2)Gal(b1-4)GlcNAc(b1-3)Gal(b1-4)GlcNAc(b1-2)Man(a1-6)]Man(b1-4)GlcNAc(b1-4)GlcNAc
Outline: (§1)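 Negative Z-scores can be read as non-binding. The Z-score is calculated within each array and then averaged across arrays of one protein sequence at different concentrations or buffers and across linkers. Arrays, 3228 in all, were curated from the Consortium for Functional Glycomics database and kept only where the protein sequence was available.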

[2] = target: Fuc(a1-2)Gal(b1-4)GlcNAc(b1-3)Gal(b1-4)GlcNAc(b1-3)Gal(b1-4)GlcNAc
Outline: as §1

[3] = target: Fuc(a1-2)Gal(b1-4)GlcNAc(b1-3)GalNAc
Outline: as §1

[4] = target: Fuc(a1-2)Gal(b1-4)GlcNAc(b1-3)[Fuc(a1-2)Gal(b1-4)GlcNAc(b1-6)]GalNAc
Outline: as §1

[5] = target: Fuc(a1-2)Gal(b1-4)GlcNAc(b1-3)[Fuc(a1-3)[Gal(b1-4)]GlcNAc(b1-6)]Gal(b1-4)Glc
Outline: as §1

[6] = target: Fuc(a1-2)Gal(b1-4)GlcNAc(b1-6)GalNAc
Outline: as §1

[7] = target: Fuc(a1-2)Gal(b1-4)GlcNAc6S
Outline: as §1

[8] = target: Fuc(a1-2)Gal(b1-4)[Fuc(a1-3)]GlcNAc
Outline: as §1

[9] = target: Fuc(a1-2)Gal(b1-4)[Fuc(a1-3)]GlcNAc(b1-2)Man(a1-3)[Fuc(a1-2)Gal(b1-4)[Fuc(a1-3)]GlcNAc(b1-2)Man(a1-6)]Man(b1-4)GlcNAc(b1-4)[Fuc(a1-6)]GlcNAc
Outline: as §1

[10] = target: Fuc(a1-2)Gal(b1-4)[Fuc(a1-3)]GlcNAc(b1-2)[Fuc(a1-2)Gal(b1-4)[Fuc(a1-3)]GlcNAc(b1-4)]Man(a1-3)[Fuc(a1-2)Gal(b1-4)[Fuc(a1-3)]GlcNAc(b1-2)Man(a1-6)]Man(b1-4)GlcNAc(b1-4)GlcNAc
Outline: as §1

[11] = target: Fuc(a1-2)Gal(b1-4)[Fuc(a1-3)]GlcNAc(b1-3)Gal(b1-4)[Fuc(a1-3)]GlcNAc
Outline: as §1

[12] = target: Fuc(a1-2)Gal(b1-4)[Fuc(a1-3)]GlcNAc(b1-3)Gal(b1-4)[Fuc(a1-3)]GlcNAc(b1-3)Gal(b1-4)[Fuc(a1-3)]GlcNAc
Outline: as §1

[13] = target: Fuc(a1-2)Gal(b1-4)[Fuc(a1-3)]GlcNAc(b1-3)GalNAc
Outline: as §1

[14] = target: Fuc(a1-2)Gal(b1-4)[Fuc(a1-3)]GlcNAc(b1-3)[Neu5Ac(a2-6)Gal(b1-4)GlcNAc(b1-6)]Gal(b1-4)Glc
Outline: as §1

[15] = target: Fuc(a1-2)Gal3S(b1-4)GlcNAc
Outline: as §1

[16] = target: Fuc(a1-2)Gal6S(b1-3)GlcNAc
Outline: as §1

[17] = target: Fuc(a1-2)Gal6S(b1-3)GlcNAc6S
Outline: as §1

Fuc(a1-2)Gal6S(b1-4)Glc = target: Fuc(a1-2)Gal6S(b1-4)Glc
Outline: as §1

[18] = target: Fuc(a1-2)Gal6S(b1-4)Glc6S
Outline: as §1

Fuc(a1-2)[Gal(a1-3)]Gal = target: Fuc(a1-2)[Gal(a1-3)]Gal
Outline: as §1

[19] = target: Fuc(a1-2)[Gal(a1-3)]Gal(b1-3)GalNAc
Outline: as §1

[20] = target: Fuc(a1-2)[Gal(a1-3)]Gal(b1-3)GalNAc(b1-3)Gal(a1-4)Gal(b1-4)Glc
Outline: as §1

[21] = target: Fuc(a1-2)[Gal(a1-3)]Gal(b1-3)GlcNAc
Outline: as §1

[22] = target: Fuc(a1-2)[Gal(a1-3)]Gal(b1-3)GlcNAc(b1-2)Man(a1-3)[Fuc(a1-2)[Gal(a1-3)]Gal(b1-3)GlcNAc(b1-2)Man(a1-6)]Man(b1-4)GlcNAc(b1-4)GlcNAc
Outline: as §1

[23] = target: Fuc(a1-2)[Gal(a1-3)]Gal(b1-3)GlcNAc(b1-2)Man(a1-3)[Fuc(a1-2)[Gal(a1-3)]Gal(b1-3)GlcNAc(b1-2)Man(a1-6)]Man(b1-4)GlcNAc(b1-4)[Fuc(a1-6)]GlcNAc
Outline: as §1

[24] = target: Fuc(a1-2)[Gal(a1-3)]Gal(b1-3)GlcNAc(b1-3)GalNAc
Outline: as §1

[25] = target: Fuc(a1-2)[Gal(a1-3)]Gal(b1-3)GlcNAc(b1-6)GalNAc
Outline: as §1

[26] = target: Fuc(a1-2)[Gal(a1-3)]Gal(b1-4)Glc
Outline: as §1

[27] = target: Fuc(a1-2)[Gal(a1-3)]Gal(b1-4)GlcNAc
Outline: as §1

[28] = target: Fuc(a1-2)[Gal(a1-3)]Gal(b1-4)GlcNAc(b1-2)Man
Outline: as §1

B1: Protein L(A-C2) (Finegoldia magna), Q51912 (protein)
chain: ADEPIDLEKLEEKRDKENVGNLPKFDNEVKDGSENPMAKYPDFDDEASTRFETENNEFEEKKVVSDNFFDQSEHPFVENKEETPETPETDSEEEVTIKANLIFANGSTQTAEFKGTFEKATSEAYAYADTLKKDNGEYTVDVADKGYTLNIKFAGKEKTPEEPKEEVTIKANLIYADGKTQTAEFKGTFEEATAEAYRYADALKKDNGEYTVDVADKGYTLNIKFAGKEKTPEEPKEEVTIKANLIYADGKTQTAEFKGTFEEATAEAYRYADLLAKENGKYTVDVADKGYTLNIKFAGKEKTPEEPKEEVTIKANLIYADGKTQTAEFKGTFAEATAEAYRYADLLAKENGKYTADLEDGGYTINIRFAGKKVDEKPEEKEQVTIKENIYFEDGTVQTATFKGTFAEATAEAYRYADLLSKEHGKYTADLEDGGYTINIRFAGKEEPEETPEKPEVQDGYASYEEAEAAAKEALKNDDVNKSYTIRQGADGRYYYVLSPVEAEEEKPEAQNGYATYEEAEAAAKKALENDPINKSYSIRQGADGRYYYVLSPVEAE
Q: What does the source list for B1?
A: glycan array binding signal (z-score) [1]: 0.464; glycan array binding signal (z-score) [2]: -0.239; glycan array binding signal (z-score) [3]: 0.441; glycan array binding signal (z-score) [4]: 0.928; glycan array binding signal (z-score) [5]: -0.819; glycan array binding signal (z-score) [6]: 0.521; glycan array binding signal (z-score) [7]: -0.568; glycan array binding signal (z-score) [8]: 0.417; glycan array binding signal (z-score) [9]: 1.53; glycan array binding signal (z-score) [10]: 1.92; glycan array binding signal (z-score) [11]: -0.152; glycan array binding signal (z-score) [12]: 0.114; glycan array binding signal (z-score) [13]: 2.89; glycan array binding signal (z-score) [14]: -0.518; glycan array binding signal (z-score) [15]: -0.332; glycan array binding signal (z-score) [16]: 0.085; glycan array binding signal (z-score) [17]: 0.001; glycan array binding signal (z-score) (Fuc(a1-2)Gal6S(b1-4)Glc): 1.09; glycan array binding signal (z-score) [18]: -0.519; glycan array binding signal (z-score) (Fuc(a1-2)[Gal(a1-3)]Gal): -0.22; glycan array binding signal (z-score) [19]: -0.228; glycan array binding signal (z-score) [20]: -0.621; glycan array binding signal (z-score) [21]: 0.074; glycan array binding signal (z-score) [22]: 0.223; glycan array binding signal (z-score) [23]: 0.84; glycan array binding signal (z-score) [24]: 0.859; glycan array binding signal (z-score) [25]: 0.496; glycan array binding signal (z-score) [26]: -0.427; glycan array binding signal (z-score) [27]: -0.751; glycan array binding signal (z-score) [28]: 0.012
